The structures appear in SMILES notation. The list shows a part of the results. These are further read-outs of the screen, such as a control signal, another cell line or another target. No call is given for them. The list favours compounds with an active or inconclusive main result. The note in brackets gives the kind of curve behind each potency; many fits are weak.

A short description of the test: qHTS Assay for Modulators of Lamin A Splicing. Conditions: HeLa LMNA splicing GFP/RFP minigene ratio, 48 h. The method, boiled down: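 Read-out is the ratio of GFP to DsRed2 object intensity, acquired by 488 nm laser-scanning cytometry on HeLa lamin A-EGFP minigene reporter cells. Compound incubation 48 hrs at 37 °C in Opti-MEM with 2% FBS; DMSO 0.5% final.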
Setting [1] is: measured here: RFP viability control channel.
Where [2] appears, read: measured here: GFP splicing reporter channel.

By AC50 is commonly meant the midpoint of the concentration-response curve, whichever way the signal moves. As to `Cc1nc(SC(C)C(=O)Nc2ccccc2Cl)cc(-c2ccccc2)n1` (configuration not stated), under setting [1], the AC50 was 6.31 µM [rising, full curve].

As for `COC(=O)Cc1ccc(NC(=S)NCCC(C)C)cc1`, the AC50 under setting [1] was 11.2 µM [rising, single point].

For the compound `COc1ccc(N2CCN(Cc3cccn3-c3nnc(N4CCN(C5CCCCC5)CC4)s3)CC2)cc1`, the AC50 under setting [2] is 20 µM [falling, partial curve, poor fit].

As to `COc1cc2c(cc1OC)CN(C(=O)NS(=O)(=O)c1ccc(C)cc1)CC2`, under setting [2], the concentration at half-maximal activity (AC50) was 7.08 µM [rising, partial curve, poor fit].

Regarding `COc1cccc(-c2nc(N3CCCCC3C)c3ccccc3n2)c1O` (configuration not stated), the concentration at half-maximal activity (AC50) was 14.1 µM [rising, single point] under setting [2] and 20 µM [rising, partial curve] under setting [1].

In the case of `CC1CCN(c2cc(N3CCN(C(=O)c4ccc(F)c(F)c4)CC3)c([N+](=O)[O-])cc2F)CC1`, the concentration at half-maximal activity (AC50) by setting is: under setting [2], 28.2 µM [rising, single point]; under setting [1], 35.5 µM [rising, single point].

`COC(=O)c1ccc(CSc2ccccc2C)o1`: the concentration at half-maximal activity (AC50) reads like this: under setting [2], 11.2 µM [rising, single point]; under setting [1], 5.01 µM [rising, full curve].

`Cc1ccc(C2(C(F)(F)F)NC(=O)N3N=C4CCCCCN4C3=C2C#N)cc1` (configuration not stated): the AC50 under setting [2] was 0.0891 µM [rising, full curve, poor fit].

Turning to `Cc1ccc(S(=O)(=O)CCSC(=N)N)cc1`, the AC50 under setting [1] is 35.5 µM [rising, single point].

Regarding `COc1ccc(CNC(=O)C2CSCCS2)cc1` (configuration not stated), the half-maximal activity concentration (AC50) by setting is: under setting [2], 0.708 µM [falling, full curve]; under setting [1], 0.631 µM [falling, full curve].

For `CCCCNc1nc(=S)n(-c2ccccc2)c(C)c1C(C)=O`, the concentration at half-maximal activity (AC50) under setting [2] is 0.708 µM [falling, full curve, poor fit].

As for `COc1ccc(-c2ccc(-c3nnn(CC(C)=O)n3)cc2)cc1`, the concentration at half-maximal activity (AC50) reads like this: under setting [2], 11.2 µM [rising, partial curve]; under setting [1], 20 µM [rising, partial curve].

`Cc1ccc(-c2cc(C(=O)N(Cc3ccc(C(C)(C)C)cc3)Cc3ccco3)no2)cc1`: the AC50 runs as follows: under setting [2], 3.98 µM [falling, partial curve, poor fit]; under setting [1], 5.01 µM [falling, partial curve].

With `Cc1ccnc(Nc2nc(-c3c(C)nc4sccn34)cs2)c1`, the AC50 is 11.2 µM [rising, partial curve] under setting [2] and 10 µM [rising, partial curve] under setting [1].

As for `Cc1cc(NS(=O)(=O)c2ccccc2)c(C)c(Cl)c1O`, the concentration at half-maximal activity (AC50) under setting [2] is 1.58 µM [rising, single point].

For `O=C(OCc1ccccc1)c1cccc(-c2nnn(Cc3ccccc3)n2)c1`, the half-maximal activity concentration (AC50) under setting [1] was 35.5 µM [rising, single point].

As for `O=C(c1ccccc1F)N1CCN(c2ccc([N+](=O)[O-])c3ncccc23)CC1`, the AC50 reads like this: under setting [2], 11.2 µM [rising, partial curve, poor fit]; under setting [1], 20 µM [rising, single point].

Consider `Cc1ccc(NS(=O)(=O)c2cc3[nH]c(=O)c(=O)[nH]c3cc2C)cc1Cl`, for which the AC50 by setting is: under setting [2], 0.0224 µM [falling, full curve, poor fit]; under setting [1], 0.02 µM [falling, full curve, poor fit].

For the compound `COc1cc(CN2CCN(Cc3ccc(SC)cc3)CC2)cc(OC)c1O`, under setting [2], the AC50 is 3.16 µM [rising, single point].

Turning to `O=C(C1CC1)N1CCc2cc(Br)cc(S(=O)(=O)N3CCN(c4ccccn4)CC3)c21`, the half-maximal activity concentration (AC50) under setting [1] was 11.2 µM [rising, partial curve, poor fit].

Consider `Cc1ccc(C2(c3ccc(C)cc3)CC2C(=O)Nc2ccc([N+](=O)[O-])cc2O)cc1` (configuration not stated), for which the AC50 under setting [2] was 2.51 µM [falling, single point] and the AC50 under setting [1] is 2 µM [falling, partial curve, poor fit].

In the case of `CCc1ccc(NC(=O)c2ccc(F)c(S(=O)(=O)NCc3ccc(Cl)c(Cl)c3)c2)cc1`, the half-maximal activity concentration (AC50) by setting is: under setting [2], 0.631 µM [falling, full curve]; under setting [1], 2 µM [falling, full curve, poor fit].

As to `CCOc1ccccc1CNC(=O)c1ccc2c(c1)nc1n2CCCCC1`, the AC50 under setting [1] is 12.6 µM [rising, partial curve].

Turning to `COc1ccccc1-c1c(C(F)(F)F)oc2cc(OC(=O)c3cccc([N+](=O)[O-])c3C)ccc2c1=O`, the AC50 runs as follows: under setting [2], 35.5 µM [falling, single point]; under setting [1], 35.5 µM [falling, single point].

As for `Nc1nc(Cl)nc2c1ncn2[C@@H]1O[C@H](COP(=O)(O)OP(=O)(O)OP(=O)(O)O)[C@H](O)[C@H]1O`, the AC50 was 35.5 µM [falling, single point] under setting [2] and 1.78 µM [rising, partial curve] under setting [1].

Regarding `O=C(NCCCNc1ccc(C(F)(F)F)cc1[N+](=O)[O-])c1ccc(Cl)cc1`, the AC50 under setting [2] is 35.5 µM [rising, single point] and the half-maximal activity concentration (AC50) under setting [1] is 35.5 µM [rising, single point].

On to `COc1ccccc1C(=O)Nc1ccccc1OCc1cc(=O)n2ccccc2n1`, for which, under setting [2], the half-maximal activity concentration (AC50) is 0.0282 µM [falling, full curve, poor fit].

Take `NS(=O)(=O)c1ccc(NC(=S)Nc2ccc(F)c(F)c2)cc1`: the AC50 under setting [2] was 31.6 µM [rising, single point].

For the compound `COc1ccc(-c2nnc(SC(C(=O)c3c[nH]c4ccccc34)c3ccccc3)n2N)cc1OC` (configuration not stated), the concentration at half-maximal activity (AC50) under setting [1] was 28.2 µM [rising, single point].

Consider `CSc1ccccc1-n1nnnc1SCc1ccccc1`, for which the AC50 reads like this: under setting [2], 31.6 µM [rising, single point]; under setting [1], 22.4 µM [rising, single point].

Consider `COc1ccc([N+](=O)[O-])cc1NC(=O)C(C)N(C)Cc1cccc(OC)c1OC` (configuration not stated), for which the AC50 under setting [1] is 2.51 µM [rising, partial curve, poor fit].

For `Cn1c(=O)cc(OCCCC(=O)NC2CCCC2)c2ccccc21`, the AC50 under setting [1] is 11.2 µM [rising, partial curve].

Consider `O=C(NCCc1ccccc1)c1nc(-c2ccc(Cl)cc2)n2c1CCCCC2`, for which the half-maximal activity concentration (AC50) under setting [1] was 35.5 µM [rising, single point].

`Cc1ccc(NC(=O)C2CCCN(S(=O)(=O)c3c(C)noc3C)C2)nc1` (configuration not stated): the half-maximal activity concentration (AC50) runs as follows: under setting [2], 35.5 µM [rising, single point]; under setting [1], 35.5 µM [rising, single point].

Turning to `COc1cccc(N2CC(NC(=O)c3ccc(S(=O)(=O)N4CCOCC4)cc3)CC2=O)c1` (configuration not stated), the concentration at half-maximal activity (AC50) under setting [2] is 0.708 µM [falling, single point].

With `Cc1ccc(C2Nc3ccccc3-c3nc4ccccc4n32)o1` (configuration not stated), the concentration at half-maximal activity (AC50) reads like this: under setting [2], 31.6 µM [rising, single point]; under setting [1], 35.5 µM [rising, single point].

`Cn1cc(C(=O)Nc2ccc3c(c2)CCC3)cn1`: under setting [1], the half-maximal activity concentration (AC50) is 22.4 µM [rising, single point].

In the case of `O=C(c1ccccc1OCc1ccccc1Br)N1CCN(c2ncccn2)CC1`, under setting [1], the half-maximal activity concentration (AC50) is 14.1 µM [rising, partial curve].

On to `CC1=C(C(=O)Nc2cccc(Cl)c2C)C2(CCCCCC2)OC1=O`, for which the AC50 under setting [2] is 10 µM [rising, partial curve, poor fit].

As for `Cc1cc(C)cc(N2C(=O)CC(Sc3ncn[nH]3)C2=O)c1` (configuration not stated), the AC50 under setting [2] was 1.26 µM [falling, full curve].

`S=C(Nc1ccccc1)N1CCN(C2CCCCC2)CC1`: the concentration at half-maximal activity (AC50) runs as follows: under setting [2], 0.0398 µM [falling, full curve]; under setting [1], 0.0891 µM [falling, full curve].

As for `Cc1cc(C(=O)C(C)Sc2cccc[n+]2[O-])c(C)n1-c1ccc(Cl)cc1` (configuration not stated), the half-maximal activity concentration (AC50) under setting [1] was 35.5 µM [rising, single point].

With `Cc1sc(NC(=O)c2cc(-c3ccccc3)nc3ccccc23)c(C(N)=O)c1C`, the AC50 under setting [1] is 14.1 µM [rising, partial curve].

Regarding `Nc1ccc2c3c(cccc13)C(=O)NC2=O`, the AC50 under setting [2] is 3.16 µM [rising, single point].

For `O=C(Nc1ccc(N2CCN(C(=O)c3ccccc3)CC2)c(Cl)c1)c1ccc(Br)o1`, the half-maximal activity concentration (AC50) by setting is: under setting [2], 35.5 µM [rising, single point]; under setting [1], 22.4 µM [rising, partial curve].

`CCn1c(=O)c([N+](=O)[O-])c(NCC(O)c2ccccc2)c2ccccc21` (configuration not stated): under setting [1], the AC50 was 0.501 µM [rising, partial curve, poor fit].

Take `CC(=O)Nc1ccc(-c2csc(NC(=O)Nc3ccccc3)n2)cc1`: under setting [1], the half-maximal activity concentration (AC50) was 0.01 µM [rising, full curve, poor fit].

Regarding `CCN(CC)C1=CC(=[N+]2CCCC2)CC(C)(C)C1`, the AC50 is 2.51 µM [rising, full curve] under setting [2] and 7.08 µM [rising, partial curve] under setting [1].

On to `COc1ccccc1Nc1sc(C(=O)c2ccc(C)cc2C)c(N)c1S(=O)(=O)c1ccccc1`, for which the concentration at half-maximal activity (AC50) under setting [1] was 1.78 µM [rising, full curve, poor fit].

As to `Cc1ccc(SCCC(=O)OCn2nnc3ccccc3c2=O)cc1`, the AC50 under setting [1] was 20 µM [rising, partial curve, poor fit].

In the case of `COC(=O)c1c(CSc2ccc(C)c(C)c2)noc1C(=O)NCc1ccc(OC)cc1`, the concentration at half-maximal activity (AC50) is 11.2 µM [rising, single point] under setting [2] and 31.6 µM [rising, single point] under setting [1].

As to `NC(=O)c1sc2nc(N3CCCCC3)c3c(c2c1N)CCCC3`, the AC50 under setting [2] is 35.5 µM [rising, single point].

For the compound `CCn1c(SCC(=O)N2CCCCC2C)nc2ccsc2c1=O` (configuration not stated), the AC50 is 12.6 µM [rising, single point] under setting [2] and 14.1 µM [rising, single point] under setting [1].

Regarding `CNC(=O)CCCN1C(=O)c2cccnc2Sc2ccccc21`, under setting [1], the AC50 is 0.00501 µM [falling, full curve, poor fit].

Take `Cc1csc(NC(=O)CCS(=O)(=O)c2ccc(Br)cc2)n1`: the AC50 under setting [1] is 3.55 µM [rising, single point].
